The chains are these.
B1: Ltv1 (protein, UniProt P34078 1-463)
chain: MSKKFSSKNSQRYVVVHRPHDDPSFYDTDASAHVLVPVSNPNKTSPEADLRKKDVSSTKPKGRRAHVGEAALYGINFDDSEYDYTQHLKPIGLDPENSIFIASKGNEQKVEKKNIEDLFIEPKYRRDEIEKDDALPVFQRGMAKPEYLLHQQDTTDEIRGFKPDMNPALREVLEALEDEAYVVNDDVVVEDISKKTQLQGDNYGEEEKEDDIFAQLLGSGEAKDEDEFEDEFDEWDIDNVENFEDENYVKEMAQFDNIENLEDLENIDYQADVRRFQKDNSILEKHNSDDEFSNAGLDSVNPSEEEDVLGELPSIQDKSKTGKKKRKSRQKKGAMSDVSGFSMSSSAIARTETMTVLDDQYDQIINGYENYEEELEEDEEQNYQPFDMSAERSDFESMLDDFLDNYELESGGRKLAKKDKEIERLKEAADEVSKGKLSQRRNRERQEKKKLEKVTNTLSSLKF
B2: Enp1 (protein, UniProt P38333 1-483)
chain: MARASSTKARKQRHDPLLKDLDAAQGTLKKINKKKLAQNDAANHDAANEEDGYIDSKASRKILQLAKEQQDEIEGEELAESERNKQFEARFTTMSYDDEDEDEDEDEEAFGEDISDFEPEGDYKEEEEIVEIDEEDAAMFEQYFKKSDDFNSLSGSYNLADKIMASIREKESQVEDMQDDEPLANEQNTSRGNISSGLKSGEGVALPEKVIKAYTTVGSILKTWTHGKLPKLFKVIPSLRNWQDVIYVTNPEEWSPHVVYEATKLFVSNLTAKESQKFINLILLERFRDNIETSEDHSLNYHIYRAVKKSLYKPSAFFKGFLFPLVETGCNVREATIAGSVLAKVSVPALHSSAALSYLLRLPFSPPTTVFIKILLDKKYALPYQTVDDCVYYFMRFRILDDGSNGEDATRVLPVIWHKAFLTFAQRYKNDITQDQRDFLLETVRQRGHKDIGPEIRRELLAGASREFVDPQEANDDLMIDVN
B3: Rps12 (eS12) (protein, UniProt P48589 1-143)
chain: MSDVEEVVEVQEETVVEQTAEVTIEDALKVVLRTALVHDGLARGLRESTKALTRGEALLVVLVSSVTEANIIKLVEGLANDPENKVPLIKVADAKQLGEWAGLGKIDREGNARKVVGASVVVVKNWGAETDELSMIMEHFSQQ
B4: Rps20 (protein, UniProt P38701 1-121)
chain: MSDFQKEKVEEQEQQQQQIIKIRITLTSTKVKQLENVSSNIVKNAEQHNLVKKGPVRLPTKVLKISTRKTPNGEGSKTWETYEMRIHKRYIDLEAPVQIVKRITQITIEPGVDVEVVVASN

By UniProt entry, the sequences of proteins in these tests, tags left out.
UniProt P40160: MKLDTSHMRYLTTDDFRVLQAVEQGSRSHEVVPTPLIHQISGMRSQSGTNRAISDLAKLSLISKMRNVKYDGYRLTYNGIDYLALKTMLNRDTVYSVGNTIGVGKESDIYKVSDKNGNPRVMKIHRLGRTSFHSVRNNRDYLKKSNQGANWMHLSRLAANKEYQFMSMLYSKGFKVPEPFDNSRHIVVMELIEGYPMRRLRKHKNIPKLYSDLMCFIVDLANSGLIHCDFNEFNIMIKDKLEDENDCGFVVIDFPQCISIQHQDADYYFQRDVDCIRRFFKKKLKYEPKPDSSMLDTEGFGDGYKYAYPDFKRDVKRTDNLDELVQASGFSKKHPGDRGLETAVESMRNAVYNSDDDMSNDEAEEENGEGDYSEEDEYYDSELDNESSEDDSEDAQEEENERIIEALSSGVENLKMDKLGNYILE

Results are given in words; binding and its absence hold for the method and conditions named. Some entries that bind do so weakly or less than the wild type.

The first assay has as its target T1, Enp1 (S. cerevisiae (endogenous in BY4742)) (UniProt P38333).
T1 sequence: B2 chain
Put plainly: cryo-EM structure; single particle analysis of Tsr1-FPZ pre-40S particles (ribonucleoprotein, purified from yeast by the bait Tsr1); consensus 3.1 Å, global classes GC1-GC3, focused classes H1-H3 (head) and P1-P3 (platform).
As to B1, the binding result is on record as “binds”.

In a further assay the target is T2, Tsr1-FPZ (S. cerevisiae) (UniProt Q07381).
T2 sequence (chain, phosphorylated on T354 or S358 (100% of the peptide)): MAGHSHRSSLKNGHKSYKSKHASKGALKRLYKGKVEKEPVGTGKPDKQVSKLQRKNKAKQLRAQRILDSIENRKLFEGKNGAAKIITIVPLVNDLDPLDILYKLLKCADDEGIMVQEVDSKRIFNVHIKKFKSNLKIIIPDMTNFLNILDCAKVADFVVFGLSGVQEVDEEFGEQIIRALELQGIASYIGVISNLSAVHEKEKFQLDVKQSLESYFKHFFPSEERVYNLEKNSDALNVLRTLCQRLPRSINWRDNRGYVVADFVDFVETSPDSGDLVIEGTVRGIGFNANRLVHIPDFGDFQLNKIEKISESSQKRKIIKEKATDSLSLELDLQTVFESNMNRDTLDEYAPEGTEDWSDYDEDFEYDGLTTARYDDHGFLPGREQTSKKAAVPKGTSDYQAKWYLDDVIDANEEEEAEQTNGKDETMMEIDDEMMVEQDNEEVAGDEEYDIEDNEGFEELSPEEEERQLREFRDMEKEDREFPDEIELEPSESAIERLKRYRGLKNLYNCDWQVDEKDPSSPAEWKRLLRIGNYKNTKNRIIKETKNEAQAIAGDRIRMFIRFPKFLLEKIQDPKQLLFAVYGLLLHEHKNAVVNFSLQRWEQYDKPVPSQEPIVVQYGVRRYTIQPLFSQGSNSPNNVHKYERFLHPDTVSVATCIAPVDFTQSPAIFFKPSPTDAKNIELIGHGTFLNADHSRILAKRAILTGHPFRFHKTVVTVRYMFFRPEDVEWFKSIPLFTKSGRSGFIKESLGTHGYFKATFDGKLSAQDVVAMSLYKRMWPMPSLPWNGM
The assay is described as above.
On to Rio2 (from UniProt P40160 1-425), for which the binding entry is “binds”.

Take B2: the binding result is “binds”.

Regarding B3, the binding result is “binds”.

Regarding B4, the binding entry was “binds”.

As to B1, the binding entry is “binds”.
